{"sequences": {"note": "By UniProt entry, the sequences of proteins in these tests, tags left out.", "UniProt P09471, whole entry, looked up": "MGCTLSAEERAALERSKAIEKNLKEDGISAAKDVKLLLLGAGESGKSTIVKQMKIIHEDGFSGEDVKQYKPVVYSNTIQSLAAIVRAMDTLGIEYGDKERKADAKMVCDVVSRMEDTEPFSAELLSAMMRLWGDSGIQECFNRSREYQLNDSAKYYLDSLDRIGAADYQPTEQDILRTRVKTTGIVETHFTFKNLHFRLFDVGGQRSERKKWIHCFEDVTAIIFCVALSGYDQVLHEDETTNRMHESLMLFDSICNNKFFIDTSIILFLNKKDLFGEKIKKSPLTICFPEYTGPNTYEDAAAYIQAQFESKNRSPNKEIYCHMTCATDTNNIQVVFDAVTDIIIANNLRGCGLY"}, "source": "PubChem BioAssay AID1439", "about": "(NMMLSC, 2008)", "note": "In all, about 220,000 compounds went through this assay and about 770 (0.35%) were called active. The shares of active, inactive and inconclusive entries below differ from those in the screen. No stated cut-off is given here; in the data, active means binding response below about 49% or above about 150%; inconclusive means no clear call, values can overlap the other calls; inactive means in between.", "data": [{"molecular_target": "Guanine nucleotide-binding protein G(o) subunit alpha (Homo sapiens) (UniProt P09471)", "test": "RGS7-Galphao binding modulators, primary screen, biochemical, multiplexed bead flow cytometry (AID 1439);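 further: fluorescent Galphao held in activated GDP-AlF4 state binding bead-coupled RGS7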", "details": "at 10 µM, actives lie on both sides", "values": [{"smiles": "Cc1ccc2nc(N/C(=N/S(=O)(=O)c3cccs3)c3ccccc3Cl)sc2c1", "binding response (% of control)": "inconclusive: 111%"}, {"smiles": "FC(F)(F)c1cccnc1-n1cncn1", "binding response (% of control)": "inconclusive: 63.1%"}, {"smiles": "C/C(=N\\Nc1cccc2cccnc12)c1ccccn1", "binding response (% of control)": "inconclusive: 91.7%"}, {"smiles": "CC(=O)c1c(Nc2cccc(F)c2)oc(C)cc1=O", "binding response (% of control)": "inconclusive: 112%"}, {"smiles": "O=[N+]([O-])c1ccc2[nH]c(O)c(N=NC(=S)Nc3cccnc3)c2c1", "binding response (% of control)": "inconclusive: 110%"}, {"smiles": "CCOC(=O)/C(=N/Nc1ccc(OC)cc1)N1CCCc2ccccc21", "binding response (% of control)": "inconclusive: 69.5%"}, {"smiles": "CC(=O)Nc1ccc2c(c1)ncn2-c1ccccc1", "binding response (% of control)": "inconclusive: 98.7%"}, {"smiles": "CCN1C(=O)[C@H]2[C@H]3[C@H](O)[C@H](O)C/C(=N\\O[C@H](C)c4cn([C@H](CO)Cc5ccccc5)nn4)[C@@H]3CC[C@H]2C1=O", "binding response (% of control)": "inactive: 99.3%"}, {"smiles": "O=C(Nc1ccccc1)c1ccccc1OCc1cccc([N+](=O)[O-])c1", "binding response (% of control)": "inactive: 101%"}, {"smiles": "O=C(CSc1ccccn1)Nc1ccc2c(c1)OCCO2", "binding response (% of control)": "inconclusive: 113%"}, {"smiles": "O=c1c2ccccc2nc(/C=C/c2ccc(O)cc2)n1CCc1ccccc1", "binding response (% of control)": "inactive: 98.9%"}, {"smiles": "COc1ccc(N2C(=S)NC3CS(=O)(=O)CC32)cc1", "note": "(centres undefined)", "binding response (% of control)": "inconclusive: 78.8%"}, {"smiles": "O=C(/C=C/c1ccc2c(c1)OCO2)Nc1nc(-c2ccc(F)cc2)cs1", "binding response (% of control)": "inactive: 102%"}, {"smiles": "Cc1nc(C(=O)Nc2ccccc2)sc1C1(C)CC(c2cccnc2)=NO1", "note": "(centres undefined)", "binding response (% of control)": "inconclusive: 94.8%"}, {"smiles": "CC(NC(=S)Nc1cccc(F)c1)C(c1cccs1)N1CCOCC1", "note": "(centres undefined)", "binding response (% of control)": "inconclusive: 91.6%"}, {"smiles": "CCCCCc1ccc(S(=O)(=O)Nc2cc(C)ccn2)cc1", "binding response (% of control)": "inconclusive: 133%"}, {"smiles": "N#CC1(NC(=O)CN2CCN(S(=O)(=O)c3ccccc3F)CC2)CCCC1", "binding response (% of control)": "inconclusive: 124%"}, {"smiles": "O=C1C2C3CC(C(Br)C3Br)C2C(=O)N1CC1CCCO1", "note": "(centres undefined)", "binding response (% of control)": "inconclusive: 99.3%"}, {"smiles": "O=C(COC(=O)CC(c1ccccc1)c1ccccc1)NCc1ccc(Cl)cc1", "binding response (% of control)": "inactive: 106%"}, {"smiles": "O/N=C/c1ccc(OCc2ccccc2)c(Br)c1", "binding response (% of control)": "inactive: 82.1%"}, {"smiles": "COc1ccccc1C(=O)N/C(=C\\c1ccc(Br)cc1)C(=O)N1CCCC1", "binding response (% of control)": "inconclusive: 73.4%"}, {"smiles": "COCC(=O)N(Cc1nc2sc(C)c(C)c2c(=O)[nH]1)C1CCCCC1", "binding response (% of control)": "inconclusive: 114%"}, {"smiles": "OC(c1ccccc1)(c1ccccc1)C1CCN(C(=S)NC2CCCC2)CC1", "binding response (% of control)": "inconclusive: 106%"}, {"smiles": "O=C(c1ccccc1)c1ccc2c(c1)OCCOCCOCCOCCO2", "binding response (% of control)": "inconclusive: 895%"}, {"smiles": "O=C(Nc1ccc(O)c2c(=O)cc(-c3ccccc3Cl)oc12)c1ccc(F)cc1", "binding response (% of control)": "inconclusive: 87.7%"}, {"smiles": "O=C(c1cnccn1)N(Cc1cccs1)C1(C(=O)NC2CCCCC2)CCCCC1", "binding response (% of control)": "inactive: 108%"}, {"smiles": "COCCCNc1ncnc2c1sc1nc(-c3ccco3)c3c(c12)CC(C)(C)OC3", "binding response (% of control)": "inconclusive: 92.3%"}, {"smiles": "CCOC(=O)CCSc1cc(C)c2ccccc2n1", "binding response (% of control)": "inactive: 95.9%"}, {"smiles": "COc1cc(C)ccc1S(=O)(=O)n1nc(C)cc1C", "binding response (% of control)": "inactive: 86.1%"}, {"smiles": "O=C(O)c1cncc(Br)c1", "binding response (% of control)": "inconclusive: 75.3%"}, {"smiles": "Cc1ccn2c(C(=O)NN=C3CCCCCCC3)c(C)nc2c1", "binding response (% of control)": "inconclusive: 115%"}, {"smiles": "CCOC(=O)C1CCN(C(=O)c2cc3c(=O)n4ccccc4nc3n2C)CC1", "binding response (% of control)": "inconclusive: 110%"}, {"smiles": "Oc1cccc(NC(=S)Nc2ccccc2)c1", "binding response (% of control)": "inconclusive: 104%"}, {"smiles": "CC(C)NC(=O)c1ccc(C2SCC(=O)N2Cc2ccccc2)cc1", "note": "(centres undefined)", "binding response (% of control)": "active: 254% [activator]"}, {"smiles": "O=C1NC(=S)N/C1=C\\c1ccc(Oc2ccc(C(F)(F)F)cc2[N+](=O)[O-])c(Cl)c1", "binding response (% of control)": "inconclusive: 41.1%"}, {"smiles": "Cc1ccc(N=Nc2c(C)[nH]n(-c3ccccc3)c2=O)cc1", "binding response (% of control)": "inactive: 100%"}, {"smiles": "C=CCNC(=O)COC(=O)c1ccc(Sc2nncn2C)c([N+](=O)[O-])c1", "binding response (% of control)": "inactive: 136%"}, {"smiles": "O=C(NCCc1ccncc1)Nc1ccc(F)cc1", "binding response (% of control)": "inconclusive: 97.5%"}, {"smiles": "COc1ccc(C(CC(=O)N2CCCC(C)C2)c2c(OC)cc(OC)c3c(-c4ccccc4)cc(=O)oc23)cc1", "note": "(centres undefined)", "binding response (% of control)": "inconclusive: 71.8%"}, {"smiles": "O=C(NCc1cccs1)C(=O)NCC(c1ccco1)N1CCN(c2ccccc2)CC1", "note": "(centres undefined)", "binding response (% of control)": "inconclusive: 84.6%"}, {"smiles": "Cn1c(=O)c2c(-c3ccc(OC(F)F)cc3)cc(-c3ccccc3)nc2n(C)c1=O", "binding response (% of control)": "inconclusive: 102%"}, {"smiles": "Fc1ccccc1-c1n[nH]c(=S)n1/N=C/c1c[nH]c2ccccc12", "binding response (% of control)": "inconclusive: 65%"}, {"smiles": "COc1ccc(OCC(=O)C2CC2)c(C#N)c1", "binding response (% of control)": "inconclusive: 75.4%"}, {"smiles": "O=C(Cn1c(N2CCN(C/C=C/c3ccccc3)CC2)nc2ccccc21)c1ccccc1", "binding response (% of control)": "inconclusive: 107%"}, {"smiles": "COc1ccc(-c2cc([C@H]3[C@H]4C=CC[C@@H](C)[C@@H]4C(=O)N3Cc3ccccc3)ccc2F)cc1", "binding response (% of control)": "inconclusive: 79.6%"}, {"smiles": "O=c1[nH]c(=S)[nH]cc1Oc1ccc(Cl)cc1Cl", "binding response (% of control)": "inconclusive: 94.1%"}, {"smiles": "CN(C)c1cc(Cl)c2nonc2c1N", "binding response (% of control)": "inconclusive: 91.3%"}, {"smiles": "S=C(Nc1ccc(Nc2ccccc2)cc1)NN1CCOCC1", "binding response (% of control)": "inconclusive: 116%"}, {"smiles": "O=C(CN1CCCCCC1)Nc1ccccc1", "binding response (% of control)": "inconclusive: 93%"}, {"smiles": "N#Cc1c(Cl)nsc1NN", "binding response (% of control)": "inconclusive: 117%"}, {"smiles": "CC1=C(C)CC(C(=O)Nc2ccc(C(N)=O)cc2)C(C(=O)O)C1", "note": "(centres undefined)", "binding response (% of control)": "inactive: 96.9%"}, {"smiles": "Cc1nnc(SCC(=O)Nc2cc(C(C)(C)C)nn2-c2ccccc2)s1", "binding response (% of control)": "inactive: 104%"}, {"smiles": "Cc1nn(C)c(C(=O)N/N=C/c2cccc3ccccc23)c1Cl", "binding response (% of control)": "active: 27.9%"}, {"smiles": "Cc1ccnc(NC(=O)CCCOc2ccc(Cl)cc2C)c1", "binding response (% of control)": "inconclusive: 115%"}, {"smiles": "Cc1ccc(/C=N/Nc2nncc(-c3ccccc3)n2)o1", "binding response (% of control)": "inconclusive: 76.8%"}, {"smiles": "CCC(C)Nc1nc(C)nc2c1oc1ccccc12", "note": "(centres undefined)", "binding response (% of control)": "inconclusive: 129%"}, {"smiles": "CC(C)CCN(C(=S)Nc1cccc(C(F)(F)F)c1)C(C)c1ccccn1", "note": "(centres undefined)", "binding response (% of control)": "inconclusive: 111%"}, {"smiles": "O=C(Nc1ncc([N+](=O)[O-])s1)c1cccc([N+](=O)[O-])c1", "binding response (% of control)": "inconclusive: 80.2%"}, {"smiles": "CC(=O)ONC(=Nc1ccccc1)c1nonc1N", "binding response (% of control)": "inconclusive: 109%"}]}]}
